Data published in PubChem BioAssay AID2685 (National Center for Advancing Translational Sciences (NCATS), 2010).
Some of the results follow. These are further read-outs of the screen, such as a control signal, another cell line or another target. No call is given for them. Compounds called inactive in the main read-out are mostly missing here. The note in brackets gives the kind of curve behind each potency; many fits are weak.

Test: qHTS Assay for Lipid Storage Modulators in Drosophila S3 Cells;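 as to cell number change: cells counted by Cell Tracker Red CMTPX staining in the red channel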
Conditions: BODIPY lipid droplet fluorescence, 18-24 h; for cell number change: measured here: cell count max response, cells fed with added oleic acid
How it was run: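 Drosophila S3 cells loaded with oleic acid (400 uM, as added) and compounds at several concentrations; lipid droplets imaged by 488-nm laser-scanning cytometry, 500–530 nm intensity and object ratio to cell channel. Percent activity normalized to 20 uM Triacsin C.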

[1] = measured here: lipid fluorescence (Fed channel) AC50, cells fed with added oleic acid
[2] = measured here: cell number channel AC50, cells fed with added oleic acid

Row | Compound | AC50 [1] | cell number change [%] | AC50 [2]
1 | O=C(CSc1nnc(NC(=O)c2c(F)cccc2F)s1)NCc1ccccc1 | 29.1 µM [rising, single point] | – | –
2 | COC(=O)c1ccc(CSc2nnc(NCc3ccccc3)s2)o1 | 6.51 µM [rising, single point] | -9.22 | –
3 | COc1cc(-c2noc(C)c2C(=O)NCCc2c[nH]c3ccccc23)cc(OC)c1OC | 29.1 µM [falling, single point] | -17.2 | –
4 | O=C(Nc1nccs1)C(Br)C(Br)c1ccccc1 (stereo unspecified) | 32.6 µM [falling, partial curve, poor fit] | -8.5 | –
5 | O=[N+]([O-])c1ccccc1S(=O)(=O)c1ccccc1[N+](=O)[O-] | 20.6 µM [falling, single point] | -35.2 | 18.4 µM [falling, single point]
6 | CN1N=C(C(F)(F)F)CC1=O | 29.1 µM [rising, single point] | 30.9 | 29.1 µM [rising, single point]
7 | COc1ccccc1NC(=O)C1=C(C)Nc2nc3ccccc3n2C1c1cccs1 (stereo unspecified) | 6.51 µM [rising, partial curve] | 30.7 | 2.31 µM [rising, full curve, poor fit]
8 | COc1cccc(N=Nc2ccc3ccccc3c2O)c1 | 0.92 µM [falling, full curve] | -7.51 | 2.91 µM [falling, partial curve]
9 | O=C(NCC1CCCO1)c1ccc(F)c2ccccc12 (stereo unspecified) | – | 13.1 | –
10 | CC(C)C(NC(=O)c1ccccc1)C(=O)N1CCCCCC1 (stereo unspecified) | 29.1 µM [falling, single point] | – | –
11 | Cc1ccc2oc(/N=C(\N)NC(=O)C3CC3)nc2c1 | 0.58 µM [falling, partial curve, poor fit] | -18.4 | –
12 | COc1ccccc1/C=C1\SC(=S)N(CCC(=O)N2CCCCC2CCO)C1=O (stereo unspecified) | 6.51 µM [falling, partial curve] | -8.56 | –
13 | CC(=O)c1ccc(OCc2ccc(Oc3c(Cl)cccc3[N+](=O)[O-])cc2)cc1 | 1.46 µM [rising, partial curve] | 12.4 | –
14 | Cn1c(=O)c2c(nc(CN3CCN(CCO)CC3)n2Cc2cccc3ccccc23)n(C)c1=O | 29.1 µM [rising, single point] | -2.51 | –
15 | CCc1ccc(CCC(=O)Nc2sc3c(c2C#N)CCCC3)o1 | 5.8 µM [rising, full curve] | – | –
16 | O=C(O)CC(NNC(=O)c1ccccc1)C(=O)Nc1cccc([N+](=O)[O-])c1 (stereo unspecified) | – | -7.74 | –
17 | COc1ccc2c(C(=O)CN3CC(C)OC(C)C3)c[nH]c2c1 (stereo unspecified) | 0.103 µM [falling, full curve, poor fit] | 12.2 | –
18 | C=CCn1c(C)c(/C=C/c2cc[n+](C)cc2)c2ccccc21 | – | -97.7 | 29.1 µM [falling, single point]
19 | CC(=O)Nc1ccc(NC(=O)C(C)OC(=O)C2CCC2)cc1 (stereo unspecified) | – | -0.748 | –
20 | NCCc1nnc(SCc2ccc(F)cc2)o1 | – | 49.8 | 9.2 µM [rising, partial curve]
21 | COc1ccc(OCC(O)CN2CCN(Cc3ccc4c(c3)OCO4)CC2)cc1 (stereo unspecified) | 0.651 µM [rising, full curve, poor fit] | – | –

Part of the list above, tab-delimited.
Row	Compound	AC50 [1]	cell number change [%]	AC50 [2]
5	O=[N+]([O-])c1ccccc1S(=O)(=O)c1ccccc1[N+](=O)[O-]	20.6 µM [falling, single point]	-35.2	18.4 µM [falling, single point]
6	CN1N=C(C(F)(F)F)CC1=O	29.1 µM [rising, single point]	30.9	29.1 µM [rising, single point]
7	COc1ccccc1NC(=O)C1=C(C)Nc2nc3ccccc3n2C1c1cccs1 (stereo unspecified)	6.51 µM [rising, partial curve]	30.7	2.31 µM [rising, full curve, poor fit]

Following part

Row | Compound | AC50 [1] | cell number change [%] | AC50 [2]
22 | COc1ccc(OC)c(NC(=O)C(Sc2ccccc2)c2ccccc2)c1 (stereo unspecified) | 13 µM [falling, single point] | -22.7 | –
23 | C1=CC(c2cc3ccccc3o2)OC(CCc2ccccc2)C1 (stereo unspecified) | 6.51 µM [rising, single point] | 23.6 | –
24 | O=C(Nc1ncnc2c1ncn2C1OC(COC(=O)c2ccccc2)C(F)C1O)c1ccccc1 (stereo unspecified) | – | – | 6.51 µM [rising, single point]
25 | COc1ccc(CCNC(=O)C2CCCN(S(=O)(=O)c3ccccc3)C2)cc1 (stereo unspecified) | 6.51 µM [rising, single point] | 28.2 | –
26 | COc1ccccc1CNC(=O)CC12CC3CC(CC(Br)(C3)C1)C2 | – | 4.62 | –
27 | Cc1oc2nc(SCC(=O)NCCCO)nc(N)c2c1C | 3.26 µM [rising, full curve, poor fit] | 25.4 | –
28 | CCn1cc(C(=O)OCC(=O)c2ccc(Cl)cc2)c(=O)c2ccc(C)nc21 | 29.1 µM [falling, single point] | -18.2 | –
29 | CC(C)Nc1nc(NC2CCCC2)nc(N2CCOCC2)n1 | 2.59 µM [falling, full curve] | -33.1 | 9.2 µM [falling, full curve, poor fit]
30 | CCOc1ccc(CCNC(=O)COC(=O)CSc2ccccc2C)cc1OCC | 4.11 µM [rising, single point] | 31.2 | 4.11 µM [rising, full curve, poor fit]
31 | O=C(/C=C/c1ccccc1Cl)c1ccc(O)cc1 | 23.1 µM [falling, single point] | -15.6 | –
32 | CCc1ccccc1N1C(=O)C2CC(C)=C(C)CC2C1=O (stereo unspecified) | 20.6 µM [falling, partial curve] | -2.2 | –
33 | CCc1cccc(NC(=O)COC(=O)c2cc(=O)c3ccccc3o2)c1 | – | 4 | –
34 | CCCc1nnc(SCC(=O)Nc2ccc(Cl)cc2Cl)o1 | 0.58 µM [rising, single point] | – | –
35 | C/C(=N\O)c1ccco1 | – | -2.58 | 0.092 µM [falling, full curve, poor fit]
36 | CC(=O)Nc1ccc(NC(=O)CSc2n[nH]c(-c3cccs3)n2)cc1 | – | -6.5 | –
37 | CCOC(=O)c1[nH]c2ccc(F)cc2c1NC(=O)CN1CCN(C/C=C/c2ccccc2)CC1 | 32.6 µM [falling, single point] | -15 | –
38 | c1ccc2c(NC3CCCC3)nnc(NC3CCCC3)c2c1 | 3.26 µM [rising, single point] | 91.1 | 10.3 µM [rising, partial curve]
39 | CCc1ccc(N2CCN(C(=O)N3CCOCC3)CC2)cc1 | 32.6 µM [falling, partial curve, poor fit] | -35.1 | 0.00517 µM [falling, full curve, poor fit]
40 | CCOc1cccc2cc(C(=O)N3CCc4ccccc43)c(=O)oc12 | – | -7.69 | –
41 | Cc1sc2nc(CSCC(=O)Nc3cc(F)ccc3F)[nH]c(=O)c2c1C | 14.6 µM [rising, partial curve, poor fit] | -2.72 | –
42 | Cc1cc(C)c(C(=O)CSc2nnc(C)c(=O)[nH]2)cc1C | – | 160 | 29.1 µM [rising, single point]

Row | Compound | AC50 [1] | cell number change [%] | AC50 [2]
43 | Cc1ccc(S(=O)(=O)NC(=O)c2ccccc2C)cc1 | 0.651 µM [rising, full curve, poor fit] | 40.4 | 29.1 µM [rising, single point]
44 | O=C(N/N=C/c1cn(Cc2ccccc2)c2ccccc12)c1cccnc1 | 1.3 µM [rising, partial curve] | -40.1 | 10.3 µM [falling, partial curve, poor fit]
45 | CCC(=O)N1CCN(c2ccc(NC(=O)c3ccc([N+](=O)[O-])o3)cc2Cl)CC1 | – | -56.8 | –
46 | CC(=O)N1N=C(c2ccc(C)cc2)CC1c1ccco1 (stereo unspecified) | 0.251 µM [falling, partial curve, poor fit] | 8.12 | –
47 | Cc1cc(C)cc(OCC(=O)NNC(=O)c2cc3ccccc3oc2=O)c1 | 29.1 µM [rising, single point] | 9.43 | –
48 | Cc1ccc(Nc2nc3c([nH]2)c(=O)n(C)c(=O)n3C)cc1 | 20.6 µM [rising, partial curve] | 29.3 | 3.66 µM [rising, full curve, poor fit]
49 | CC(=O)Nc1ccc(S(=O)(=O)N2CCC3(CC2)CC(=O)c2ccccc2O3)cc1 | – | 29.1 | –
50 | CCN(CC)C(=O)CSc1nc2ccc(NC(=O)CSc3nnc(N)s3)cc2s1 | 9.2 µM [falling, partial curve, poor fit] | -20 | –
51 | O=C(COC(=O)C12CC3CC(CC(C3)C1)C2)NC12CC3CC(CC(C3)C1)C2 | 16.4 µM [falling, single point] | -17.5 | –
52 | CCOC(=O)c1sc(=NC(=O)COc2ccccc2)n(C)c1C | 23.1 µM [rising, single point] | -13 | –
53 | O=C(c1ccc(C(F)(F)F)cc1)N1CCC(=O)N(C(COCc2ccccc2)Cc2ccccc2)CC1 (stereo unspecified) | 32.6 µM [falling, single point] | -31.2 | 29.1 µM [falling, single point]
54 | Cc1cc(C(=O)COC(=O)c2ccc[nH]c2=O)c(C)n1CCc1ccc(F)cc1 | 6.51 µM [rising, partial curve] | -21.5 | –
55 | COc1ccc(S(=O)(=O)N2CCC(C(=O)NC3CCCCC3C)CC2)cc1 (stereo unspecified) | – | 13.3 | –
56 | Nc1ccc(CCC(=O)N2CCCC2)cc1 | – | 20.4 | –
57 | COc1cccc(NC(=O)NC2CCCCC2C)c1 (stereo unspecified) | – | 11.2 | –
58 | O=C(CSc1nnnn1C1CCCCC1)NCc1ccc2c(c1)OCO2 | – | -10.2 | –
59 | COC(=O)c1cc(-c2ccc(Cl)cc2)n(-c2ccc(S(N)(=O)=O)cc2)n1 | 25.9 µM [rising, partial curve, poor fit] | 45.5 | 6.51 µM [rising, partial curve, poor fit]
60 | O=C(O)c1ccc(C2CCCCC2)cn1 | 0.13 µM [falling, full curve, poor fit] | – | 0.411 µM [falling, partial curve, poor fit]
61 | CC(C)Cn1c(SCC(=O)NCc2ccc(Cl)cc2)nnc1-c1cccc(S(=O)(=O)N2CCOCC2)c1 | 29.1 µM [falling, single point] | -10.8 | –
